Record: PubChem BioAssay AID1224830 (NIAID, 2016)
Shown is a random part of about 18,000 deposited reagents. About 2,900 of them (16%) were called active. 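Calls are made per well; low scores hint the gene aids the LPS response, high scores that it dampens it.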 Repeated entries: four replicate wells of each siRNA pool.

Aim: 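Regulators of TLR4 signalling towards TNF-alpha in macrophage-like cells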 (primary screen)
Cell system: human THP-1 monocytic leukaemia cells, TNF dual-luciferase reporter clone, PMA-differentiated to macrophage-like cells
Reagents: siRNA pool against human genes, 50 nM
Time to read-out: LPS for 4 h, given about 3 days after siRNA transfection
Challenge: bacterial LPS (TLR4 ligand), 10 ng/ml
Detection: 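Ratio of firefly to renilla light, scaled to the plate median and expressed as a robust z-score per replicate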
Scale: TNF reporter robust z-score: higher = stronger TNF reporter response to LPS
Active means: 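Each well counts as active if its z-score is over 2.8 or under -1.5; controls are left without a call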

KIR3DL1: TNF reporter robust z-score = 2.05; Call = inactive
KIR3DL1: TNF reporter robust z-score = -0.11; Call = inactive
KIR3DL1: TNF reporter robust z-score = 0.25; Call = inactive
KIR3DL1: TNF reporter robust z-score = -0.9; Call = inactive
SLA2: TNF reporter robust z-score = -0.89; Call = inactive
SLA2: TNF reporter robust z-score = -0.74; Call = inactive
SLA2: TNF reporter robust z-score = -1.08; Call = inactive
SLA2: TNF reporter robust z-score = -0.77; Call = inactive
RBM19: TNF reporter robust z-score = -0.06; Call = inactive
RBM19: TNF reporter robust z-score = -0.11; Call = inactive
RBM19: TNF reporter robust z-score = -0.58; Call = inactive
RBM19: TNF reporter robust z-score = 0.62; Call = inactive
TMEM260: TNF reporter robust z-score = 1.81; Call = inactive
TMEM260: TNF reporter robust z-score = 3.12; Call = active
TMEM260: TNF reporter robust z-score = 0.07; Call = inactive
TMEM260: TNF reporter robust z-score = -0.36; Call = inactive
ESYT3: TNF reporter robust z-score = -0.83; Call = inactive
ESYT3: TNF reporter robust z-score = -1.01; Call = inactive
ESYT3: TNF reporter robust z-score = -1.11; Call = inactive
ESYT3: TNF reporter robust z-score = -0.66; Call = inactive
IGF2: TNF reporter robust z-score = -0.83; Call = inactive
IGF2: TNF reporter robust z-score = -0.99; Call = inactive
IGF2: TNF reporter robust z-score = -1.02; Call = inactive
IGF2: TNF reporter robust z-score = -0.92; Call = inactive
AVPR1B: TNF reporter robust z-score = -0.29; Call = inactive
AVPR1B: TNF reporter robust z-score = -0.13; Call = inactive
AVPR1B: TNF reporter robust z-score = -0.27; Call = inactive
AVPR1B: TNF reporter robust z-score = -0.09; Call = inactive
STRIP1: TNF reporter robust z-score = 0.23; Call = inactive
STRIP1: TNF reporter robust z-score = 1.33; Call = inactive
STRIP1: TNF reporter robust z-score = 0.3; Call = inactive
STRIP1: TNF reporter robust z-score = 2; Call = inactive

Reformatted: 5 of the entries above.
AVPR1B
- TNF reporter robust z-score: -0.13
- Call: inactive

AVPR1B
- TNF reporter robust z-score: -0.27
- Call: inactive

AVPR1B
- TNF reporter robust z-score: -0.09
- Call: inactive

STRIP1
- TNF reporter robust z-score: 0.23
- Call: inactive

STRIP1
- TNF reporter robust z-score: 1.33
- Call: inactive
